PubChem BioAssay AID1053208 – Peter MacCallum Cancer Centre – 2014

Aim: 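Find knock-downs that sensitise mouse osteosarcoma cells to doxorubicin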 (primary screen)
Cell system: mouse osteosarcoma cells, early-passage culture from an engineered mouse model of fibroblastic bone tumour
Reagents: siRNA pool against mouse genes, 40 nM
Time to read-out: about 120 h (48 h before drug, then 72 h with drug)
Challenge: doxorubicin 100 nM for 72 h, roughly 30-40% inhibitory dose
Detection: 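Luminescent ATP signal taken as viability with or without 100 nM doxorubicin for 72 h; mean of two wells set against non-targeting siRNA and turned into robust z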
Direction: viability z-score with doxorubicin: higher = more viable cells under doxorubicin; viability z-score without drug: higher = more viable cells with knock-down alone
Call rule: 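a pool counts as active when its viability z-score with doxorubicin is -2 or below and its z-score without drug lies between -2 and 2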
Shown is one part, drawn at random, of about 17,000 reagents tested. 788 of all reagents (4.7%) count as active. 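Calls rest on z-score classes alone; an extra cut-off of viability at most 70% of control was not applied to them.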 A number with no mark means an inactive call. Some reagents were tested in more than one well and are listed for each. Further read-outs or replicates are left out here. No sequences are given here.

Ggta1 — combined z-score class: high cell count without drug only; viability z-score with doxorubicin: 1.01; viability z-score without drug: 2.36
Npr2 — combined z-score class: no change with or without drug; viability z-score with doxorubicin: -0.45; viability z-score without drug: -0.17
Npr2 — combined z-score class: high cell count with doxorubicin only; viability z-score with doxorubicin: 2.47; viability z-score without drug: 1.01
Zg16 — combined z-score class: high cell count without drug only; viability z-score with doxorubicin: 1.8; viability z-score without drug: 4.72
Cdc42 — combined z-score class: low cell count without drug only; viability z-score with doxorubicin: -0.9; viability z-score without drug: -2.19
Bbox1 — combined z-score class: no change with or without drug; viability z-score with doxorubicin: 1.8; viability z-score without drug: 0.51
Ube2t — combined z-score class: no change with or without drug; viability z-score with doxorubicin: -0.67; viability z-score without drug: 0.84
Als2cl — combined z-score class: no change with or without drug; viability z-score with doxorubicin: -0.22; viability z-score without drug: 0
Tuba3a — combined z-score class: no change with or without drug; viability z-score with doxorubicin: -1.8; viability z-score without drug: -1.52
Cr2 — combined z-score class: no change with or without drug; viability z-score with doxorubicin: -0.67; viability z-score without drug: 0
Or4f54 — combined z-score class: low cell count with doxorubicin only (active); viability z-score with doxorubicin: -2.02; viability z-score without drug: -1.85
Ddx27 — combined z-score class: no change with or without drug; viability z-score with doxorubicin: -0.22; viability z-score without drug: -0.17
Strap — combined z-score class: no change with or without drug; viability z-score with doxorubicin: -1.01; viability z-score without drug: -0.17
Gcm2 — combined z-score class: no change with or without drug; viability z-score with doxorubicin: -0.22; viability z-score without drug: -0.17
4933427E11Rik — combined z-score class: no change with or without drug; viability z-score with doxorubicin: -0.45; viability z-score without drug: 0.67
Exosc10 — combined z-score class: low cell count without drug only; viability z-score with doxorubicin: -1.12; viability z-score without drug: -2.19
Twf2 — combined z-score class: no change with or without drug; viability z-score with doxorubicin: -0.67; viability z-score without drug: -0.51
Rnase6 — combined z-score class: no change with or without drug; viability z-score with doxorubicin: -1.69; viability z-score without drug: 0
Ccne2 — combined z-score class: no change with or without drug; viability z-score with doxorubicin: -0.67; viability z-score without drug: 0.17
Or4c112 — combined z-score class: low cell count with doxorubicin only (active); viability z-score with doxorubicin: -2.7; viability z-score without drug: -1.52
Ttpal — combined z-score class: no change with or without drug; viability z-score with doxorubicin: 1.12; viability z-score without drug: 0.67
Ucp1 — combined z-score class: high cell count with doxorubicin only; viability z-score with doxorubicin: 2.25; viability z-score without drug: 1.69
Sf3a2 — combined z-score class: low cell count with doxorubicin only (active); viability z-score with doxorubicin: -3.15; viability z-score without drug: 0.17
Gsdmd — combined z-score class: no change with or without drug; viability z-score with doxorubicin: -0.22; viability z-score without drug: 0.84
Adnp — combined z-score class: no change with or without drug; viability z-score with doxorubicin: -1.12; viability z-score without drug: -1.01
E230001N04Rik — combined z-score class: no change with or without drug; viability z-score with doxorubicin: 0.22; viability z-score without drug: 1.35
A930018P22Rik — combined z-score class: no change with or without drug; viability z-score with doxorubicin: -1.01; viability z-score without drug: 0
Trpv3 — combined z-score class: no change with or without drug; viability z-score with doxorubicin: 0.45; viability z-score without drug: 1.52

Entries listed above marked active (3):
Or4f54 — combined z-score class: low cell count with doxorubicin only (active); viability z-score with doxorubicin: -2.02; viability z-score without drug: -1.85
Or4c112 — combined z-score class: low cell count with doxorubicin only (active); viability z-score with doxorubicin: -2.7; viability z-score without drug: -1.52
Sf3a2 — combined z-score class: low cell count with doxorubicin only (active); viability z-score with doxorubicin: -3.15; viability z-score without drug: 0.17
